No constants are given. Whether binding was seen depends on the method and setting. In cells and extracts the contact can be indirect. Some entries that bind do so weakly or less than the wild type. Tags and fused reporters may be left off the sequences shown.
Tests used:
Test in all cases: co-IP; 293T cells co-transfected with HA-tagged SHIP1 constructs and Flag-tagged partners; IP using anti-Flag beads and immunoblot with anti-HA (Fig. 3C, 5A; also Fig. 3H, 3I, S3A, S5A); Flag-IRF3 with HA-SHIP1 also in NDP52 KO 293T cells, where the interaction was reduced (Fig. 5J)
[1] = target: T1, melanoma differentiation-associated protein 5 (MDA5) (UniProt Q9BYX4)
T1 sequence: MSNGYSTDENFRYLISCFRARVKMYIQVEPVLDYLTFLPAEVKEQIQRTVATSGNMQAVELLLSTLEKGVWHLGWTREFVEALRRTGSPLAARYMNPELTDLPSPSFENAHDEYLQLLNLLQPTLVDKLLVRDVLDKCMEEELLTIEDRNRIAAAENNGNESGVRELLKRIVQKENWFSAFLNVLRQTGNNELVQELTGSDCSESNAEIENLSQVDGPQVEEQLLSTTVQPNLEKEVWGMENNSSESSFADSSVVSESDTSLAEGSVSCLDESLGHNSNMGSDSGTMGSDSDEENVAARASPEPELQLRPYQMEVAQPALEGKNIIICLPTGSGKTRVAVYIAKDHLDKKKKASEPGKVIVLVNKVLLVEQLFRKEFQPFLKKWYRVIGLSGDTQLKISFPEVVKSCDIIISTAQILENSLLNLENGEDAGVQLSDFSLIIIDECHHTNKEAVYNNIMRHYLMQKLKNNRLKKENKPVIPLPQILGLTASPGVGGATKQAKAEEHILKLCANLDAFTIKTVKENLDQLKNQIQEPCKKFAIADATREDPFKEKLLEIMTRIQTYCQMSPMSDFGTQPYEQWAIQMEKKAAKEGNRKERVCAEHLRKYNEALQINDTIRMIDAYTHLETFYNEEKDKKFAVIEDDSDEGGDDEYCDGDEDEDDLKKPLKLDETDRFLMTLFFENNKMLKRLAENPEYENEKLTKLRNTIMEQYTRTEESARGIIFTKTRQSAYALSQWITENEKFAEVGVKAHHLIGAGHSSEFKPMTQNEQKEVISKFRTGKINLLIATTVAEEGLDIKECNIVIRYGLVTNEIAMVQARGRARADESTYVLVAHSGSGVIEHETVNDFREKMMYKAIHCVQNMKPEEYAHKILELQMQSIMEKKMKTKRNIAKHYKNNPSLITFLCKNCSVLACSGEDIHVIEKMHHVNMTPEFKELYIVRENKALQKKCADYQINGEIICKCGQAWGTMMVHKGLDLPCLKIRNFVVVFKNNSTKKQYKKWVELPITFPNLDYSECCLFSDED

[2] = target: T2, TANK-binding kinase 1 (TBK1) (UniProt Q9UHD2)
T2 sequence: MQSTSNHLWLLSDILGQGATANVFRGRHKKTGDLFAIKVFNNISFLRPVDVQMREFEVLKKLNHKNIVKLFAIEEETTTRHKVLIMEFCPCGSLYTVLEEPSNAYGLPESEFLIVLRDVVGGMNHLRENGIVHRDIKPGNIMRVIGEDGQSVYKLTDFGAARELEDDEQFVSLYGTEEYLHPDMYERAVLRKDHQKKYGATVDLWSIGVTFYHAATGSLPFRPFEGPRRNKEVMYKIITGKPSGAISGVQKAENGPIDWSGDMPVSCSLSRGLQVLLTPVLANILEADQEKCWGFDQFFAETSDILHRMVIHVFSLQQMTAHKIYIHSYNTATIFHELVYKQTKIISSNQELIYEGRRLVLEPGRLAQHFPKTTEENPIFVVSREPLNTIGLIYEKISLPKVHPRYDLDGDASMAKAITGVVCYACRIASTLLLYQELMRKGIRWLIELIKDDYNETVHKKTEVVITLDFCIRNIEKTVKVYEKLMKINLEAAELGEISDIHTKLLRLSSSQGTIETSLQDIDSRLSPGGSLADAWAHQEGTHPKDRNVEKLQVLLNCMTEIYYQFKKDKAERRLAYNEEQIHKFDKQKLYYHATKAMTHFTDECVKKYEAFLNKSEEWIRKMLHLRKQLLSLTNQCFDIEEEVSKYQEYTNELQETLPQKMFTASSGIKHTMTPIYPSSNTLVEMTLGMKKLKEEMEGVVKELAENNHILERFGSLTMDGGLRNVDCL

[3] = target: T3, Flag-IRF3, full length (FL) (UniProt Q14653)
T3 sequence: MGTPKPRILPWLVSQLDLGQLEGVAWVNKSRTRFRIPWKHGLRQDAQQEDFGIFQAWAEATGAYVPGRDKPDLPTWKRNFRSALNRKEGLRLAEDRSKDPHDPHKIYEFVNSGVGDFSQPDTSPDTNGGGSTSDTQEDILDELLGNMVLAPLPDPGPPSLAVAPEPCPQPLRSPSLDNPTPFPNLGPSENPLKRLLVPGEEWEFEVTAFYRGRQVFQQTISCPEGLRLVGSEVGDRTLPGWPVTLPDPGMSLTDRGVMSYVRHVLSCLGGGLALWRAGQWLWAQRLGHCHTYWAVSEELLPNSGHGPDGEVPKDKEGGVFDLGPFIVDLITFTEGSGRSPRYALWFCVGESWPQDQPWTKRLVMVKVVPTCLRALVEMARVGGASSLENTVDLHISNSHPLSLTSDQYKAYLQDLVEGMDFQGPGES

B1: HA-tagged SHIP1 (Src homology 2 containing inositol phosphatase 1), full length (protein, UniProt Q92835 1-1189)
chain: MVPCWNHGNITRSKAEELLSRTGKDGSFLVRASESISRAYALCVLYRNCVYTYRILPNEDDKFTVQASEGVSMRFFTKLDQLIEFYKKENMGLVTHLQYPVPLEEEDTGDDPEEDTVESVVSPPELPPRNIPLTASSCEAKEVPFSNENPRATETSRPSLSETLFQRLQSMDTSGLPEEHLKAIQDYLSTQLAQDSEFVKTGSSSLPHLKKLTTLLCKELYGEVIRTLPSLESLQRLFDQQLSPGLRPRPQVPGEANPINMVSKLSQLTSLLSSIEDKVKALLHEGPESPHRPSLIPPVTFEVKAESLGIPQKMQLKVDVESGKLIIKKSKDGSEDKFYSHKKILQLIKSQKFLNKLVILVETEKEKILRKEYVFADSKKREGFCQLLQQMKNKHSEQPEPDMITIFIGTWNMGNAPPPKKITSWFLSKGQGKTRDDSADYIPHDIYVIGTQEDPLSEKEWLEILKHSLQEITSVTFKTVAIHTLWNIRIVVLAKPEHENRISHICTDNVKTGIANTLGNKGAVGVSFMFNGTSLGFVNSHLTSGSEKKLRRNQNYMNILRFLALGDKKLSPFNITHRFTHLFWFGDLNYRVDLPTWEAETIIQKIKQQQYADLLSHDQLLTERREQKVFLHFEEEEITFAPTYRFERLTRDKYAYTKQKATGMKYNLPSWCDRVLWKSYPLVHVVCQSYGSTSDIMTSDHSPVFATFEAGVTSQFVSKNGPGTVDSQGQIEFLRCYATLKTKSQTKFYLEFHSSCLESFVKSQEGENEEGSEGELVVKFGETLPKLKPIISDPEYLLDQHILISIKSSDSDESYGEGCIALRLEATETQLPIYTPLTHHGELTGHFQGEIKLQTSQGKTREKLYDFVKTERDESSGPKTLKSLTSHDPMKQWEVTSRAPPCSGSSITEIINPNYMGVGPFGPPMPLHVKQTLSPDQQPTAWSYDQPPKDSPLGPCRGESPPTPPGQPPISPKKFLPSTANRGLPPRTQESRPSDLGKNAGDTLPQEDLPLTKPEMFENPLYGSLSSFPKPAPRKDQESPKMPRKEPPPCPEPGILSPSIVLTKAQEADRGEGPGKQVPAPRLRSFTCSSSAEGRAAGGDKSQGKPKTPVSSQAPVPAKRPIKPSRSEINQQTPPTPTPRPPLPVKSPAVLHLQHSKGRDYRDNTELPHHGKHRPEEGPPGPLGRTAMQ
With B1 the binding [1] was “no binding”, the binding [2] was “no binding” and the binding [3] was “binds”.
